PubChem BioAssay AID504793 | Drosophila RNAi Screening Center | 2011
Purpose: 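Whole-genome screen for parts of the DNA damage checkpoint at G2/M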 (primary screen). Cells: Drosophila S2R+ cells. Reagent: long dsRNA against Drosophila genes, about 0.25 µg dsRNA per well. Time to read-out: 4 days of dsRNA, then 4 hours of drug before read-out. Treatment: doxorubicin 0.5 µM for 4 hours to cause double-strand breaks, in cells also given a low, harmless dose of dsRNA against nbs to sensitise the assay. Detection: 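Mitotic index as the number of phospho-histone H3-positive cells in each well following doxorubicin, given as raw counts without normalisation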. Direction: mitotic cells: higher = more cells in mitosis, weaker G2 arrest. Rule for the call: 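a call needs confirmation in secondary tests, with other dsRNAs and a check of mitotic timing without damage, not just a high primary count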. Calls: active = confirmed in follow-up tests; inactive = not confirmed.
In all, the deposit lists about 23,000 reagents; below is a random part of those with a known target gene and a result. In the full data, 62 (0.27%) got an active call. 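Calls come from follow-up tests whose scores are not deposited, so confirmed genes may have low counts here; counts are not normalised per plate.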 Raw values are not corrected between plates. Unmarked entries are inactive. Names joined by + are all predicted targets of the reagent.

no.	Target gene	PubChem SID	mitotic cells, replicate 1	mitotic cells, replicate 2
1	phtm (GeneID 32857)	SID104200029	7	
2	phtm (GeneID 32857)	SID104205541	5	
3	nero (GeneID 43740)	SID104195224	6	
4	Ndf (GeneID 192507)	SID104182567	6	
5	bor (GeneID 53565)	SID104196707	9	
6	CG9592 (GeneID 39585)	SID104190870	4	
7	CG34409 (GeneID 5740854)	SID104194369	6	
8	CG34409 (GeneID 5740854)	SID104201352	7	
9	spo (GeneID 38631)	SID104190919	4	
10	Cnep1r2 (GeneID 39204)	SID104190742	4	
11	CG2006 + Spase12	SID104194108	6	
12	Cox11 (GeneID 33776)	SID104202081	8	
13	Lap1 (GeneID 36670)	SID104187246	7	
14	Stt3A (GeneID 33082)	SID104200306	4	
15	Stt3A (GeneID 33082)	SID104203455	5	
16	Or2a (GeneID 31207)	SID104198482	11	
17	Acf (GeneID 43751)	SID104193893	5	
18	Acf (GeneID 43751)	SID104208341	11	
19	CG17221 (GeneID 33521)	SID104180279	6	
20	CG17221 (GeneID 33521)	SID104205981	2	
21	CG32447 (GeneID 40412)	SID104191524	7	
22	CG32447 (GeneID 40412)	SID104191597	3	
23	lin-52 (GeneID 31499)	SID104197898	11	
24	CG30196 (GeneID 37595)	SID104183948	2	
25	CG6357 (GeneID 36532)	SID104186771	4	
26	Lint-1 (GeneID 32055)	SID104199614	10	
27	Lint-1 (GeneID 32055)	SID104206720	9	
28	cora (GeneID 37205)	SID104187389	5	
29	cora (GeneID 37205)	SID104206669	9	
30	CG16741 (GeneID 59232)	SID104186414	1	
31	CG16741 (GeneID 59232)	SID104203037	8	
32	CG14089 (GeneID 40101)	SID104189885	1	
33	CG14089 (GeneID 40101)	SID104203434	6	
34	abd-A (GeneID 42037)	SID104192971	5	
35	abd-A (GeneID 42037)	SID104202370	6	
36	abd-A (GeneID 42037)	SID104207609	4	
37	CG12920 (GeneID 36052)	SID104186026	2	
38	CNT1 + CG13742	SID104186205	5	
39	CNT1 + CG13742	SID104207220	4	
40	Or67d (GeneID 39191)	SID104189950	6	
41	CG33476 (GeneID 2768727)	SID104202247	13	
42	MAN1 (GeneID 37838)	SID104184134	6	
43	CG8097 (GeneID 32495)	SID104199871	7	
44	eEFSec (GeneID 37444)	SID104184363	2	
45	lawc (retired record) (GeneID 45395)	SID104202565	16	
46	Nle (GeneID 33234)	SID104180555	2	
47	Gcn2 (GeneID 43709)	SID104196470	7	
48	Inos (GeneID 35671)	SID104187447	9	
49	Inos (GeneID 35671)	SID104205563	3	
50	CG33288 (GeneID 2768968)	SID104191276	13	
51	CG7702 (GeneID 42242)	SID104196085	5	
52	CG7702 (GeneID 42242)	SID104206136	5	
53	CG14194 (GeneID 32908)	SID104199341	5	
54	Pfdn2 (GeneID 46121)	SID104190410	1	
55	qkr58E-2 (GeneID 37562)	SID104184502	4	
56	qkr58E-2 (GeneID 37562)	SID104203842	6	
57	CG10646 (GeneID 39426)	SID104189556	9	
58	CecB (GeneID 43598)	SID104196397	8	
59	gcm (GeneID 34277)	SID104183328	10	8
60	gammaTub37C (GeneID 35199)	SID104183327	3	
61	gammaTub37C (GeneID 35199)	SID104204379	9	
62	CG32189 (GeneID 317902)	SID104189303	10	
63	CG32189 (GeneID 317902)	SID104205300	9	
64	Sugb (GeneID 39314)	SID104190607	9	
65	CG2698 (GeneID 40945)	SID104195239	2	
66	fend (GeneID 31843)	SID104197393	7	
67	fend (GeneID 31843)	SID104197659	7	
68	CG5693 (GeneID 50463)	SID104182670	8	
69	CG13101 (GeneID 34221)	SID104181993	6	
70	otk (GeneID 36283)	SID104187450	3	
71	otk (GeneID 36283)	SID104207736	6	
72	Nep4 (GeneID 42449)	SID104195331	6	
73	CG4730 (GeneID 43099)	SID104195425	6	
74	CG4730 (GeneID 43099)	SID104203262	10	
75	p38c (GeneID 2768679)	SID104202296	4	
76	CG1622 (GeneID 32282)	SID104199537	1	
77	CG1622 (GeneID 32282)	SID104206886	12	
78	EMC5 (GeneID 35159)	SID104182261	3	
79	CG14762 (GeneID 35768)	SID104184865	8	
80	CG14762 (GeneID 35768)	SID104186288	8	
81	CG31128 (GeneID 318601)	SID104193467	9	
82	CG10019 (GeneID 33600)	SID104203505	1	
83	Mettl4 + CG14907	SID104205260	8	
84	Lis-1 (GeneID 36791)	SID104187251	81	
85	CG10841 (GeneID 41665)	SID104194063	6	
86	CG10841 (GeneID 41665)	SID104206686	4	
87	tra (GeneID 39849)	SID104191197	3	
88	CG14960 (GeneID 38403)	SID104188211	8	
89	Rtc1 (GeneID 32338)	SID104200077	11	
90	CG8891 (GeneID 33718)	SID104182912	10	
91	CG8891 (GeneID 33718)	SID104206852	8	
92	CG9701 (GeneID 39872)	SID104190885	6	
93	CG9701 (GeneID 39872)	SID104204876	4	
94	PCNA (GeneID 37290)	SID104187445	9	
95	CG32681 (GeneID 318151)	SID104197438	10	
96	M6 (GeneID 40383)	SID104191661	9	
97	CG12693 (GeneID 31375)	SID104197674	11	
98	gce (GeneID 32457)	SID104199405	11	
99	gce (GeneID 32457)	SID104199766	11	
100	gce (GeneID 32457)	SID104202897	6	
101	gce (GeneID 32457)	SID104203812	5	
102	CG7275 (GeneID 39669)	SID104190588	6	
103	ena (GeneID 37201)	SID104185571	7	
104	ena (GeneID 37201)	SID104187402	5	
105	ena (GeneID 37201)	SID104203939	8	
106	Asph (GeneID 36778)	SID104186575	6	
107	Asph (GeneID 36778)	SID104186963	8	
108	Asph (GeneID 36778)	SID104208051	2	
109	CG9876 (GeneID 37668)	SID104184378	3	
110	CG4271 (GeneID 33410)	SID104180441	4	

Just “mitotic cells, replicate 1”, for 10 of the entries above:
CG17221 (GeneID 33521) [SID104180279] = 6
CG17221 (GeneID 33521) [SID104205981] = 2
CG32447 (GeneID 40412) [SID104191524] = 7
CG32447 (GeneID 40412) [SID104191597] = 3
lin-52 (GeneID 31499) [SID104197898] = 11
CG30196 (GeneID 37595) [SID104183948] = 2
CG6357 (GeneID 36532) [SID104186771] = 4
Lint-1 (GeneID 32055) [SID104199614] = 10
Lint-1 (GeneID 32055) [SID104206720] = 9
cora (GeneID 37205) [SID104187389] = 5
